PubChem BioAssay AID1508597, Cure First, 2020
This is a random part of the about 2,100 reagents, in one setting of the screen. 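Calls flag viability under 80% in either arm, not effects specific to rucaparib; the reference for percent is not stated.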 A number with no mark means an inactive call. A reagent listed more than once was tested more than once; the source does not tell the runs apart. The record does not give: the 100% reference.

- Test: 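Survival screen with siRNA in ovarian cancer cells derived from patients, with or without rucaparib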 (primary screen)
- Cell system: human ovarian carcinoma lines grown from tumours: OCI-P5x (papillary serous) and OCI-C5x (clear cell)
- Reagent: siRNA pool against human genes, 1.25 pmol siRNA per well
- Duration: 72 h or 96 h, depending on the cell culture
- Treatment: rucaparib 20 µM (about IC30) or vehicle, present until read-out
- Rucaparib or vehicle: Vehicle
- Cell line: OCI-P5x (serous)
- Read-out: 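Luminescent ATP-based viability assay read 72 or 96 h after transfection, depending on culture, given as normalised percent viability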
- Scale: viability, normalised: higher = more viable cells remaining
- Active means: 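Active when normalised viability falls below 80 percent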
- Calls: active = viability under 80%; inactive = viability 80% or more

With UCHL5 (ubiquitin C-terminal hydrolase L5) [SID405526605], technical replicate 1, what was measured?
viability, normalised (%): 84.6

For UCHL5 (ubiquitin C-terminal hydrolase L5) [SID405526605], technical replicate 2, how do the results read?
viability, normalised (%): 78.5 (active)

Which result is listed for UCHL5 (ubiquitin C-terminal hydrolase L5) [SID405526605], technical replicate 3?
viability, normalised (%): 57.8 (active)

With MORF4L2 (mortality factor 4 like 2) [SID405527026], technical replicate 1, what does the deposit list?
viability, normalised (%): 56.5 (active)

For MORF4L2 (mortality factor 4 like 2) [SID405527026], technical replicate 2, what does the deposit list?
viability, normalised (%): 76.1 (active)

Which result is listed for MORF4L2 (mortality factor 4 like 2) [SID405527026], technical replicate 3?
viability, normalised (%): 63.8 (active)

How did the screen score DDX50 (DExD-box helicase 50) [SID405528195], technical replicate 1?
viability, normalised (%): 70.4 (active)

With DDX50 (DExD-box helicase 50) [SID405528195], technical replicate 2, what does the deposit list?
viability, normalised (%): 75.7 (active)

For DDX50 (DExD-box helicase 50) [SID405528195], technical replicate 3, how do the results read?
viability, normalised (%): 79.1 (active)

What did the screen give for TDRD1 (tudor domain containing 1) [SID405526541], technical replicate 1?
viability, normalised (%): 73.2 (active)

For TDRD1 (tudor domain containing 1) [SID405526541], technical replicate 2, what does the deposit list?
viability, normalised (%): 83.1

What did the screen give for TDRD1 (tudor domain containing 1) [SID405526541], technical replicate 3?
viability, normalised (%): 75.8 (active)

For EPHB2 (EPH receptor B2) [SID405527702], technical replicate 1, how do the results read?
viability, normalised (%): 94.9

What did the screen give for EPHB2 (EPH receptor B2) [SID405527702], technical replicate 2?
viability, normalised (%): 79.8 (active)

Which result is listed for EPHB2 (EPH receptor B2) [SID405527702], technical replicate 3?
viability, normalised (%): 75.6 (active)

What did the screen give for MED1 (mediator complex subunit 1) [SID405526979], technical replicate 1?
viability, normalised (%): 63.3 (active)

What is on record for MED1 (mediator complex subunit 1) [SID405526979], technical replicate 2?
viability, normalised (%): 69.6 (active)

What did the screen give for MED1 (mediator complex subunit 1) [SID405526979], technical replicate 3?
viability, normalised (%): 76.8 (active)

What did the screen give for NCOA6 (nuclear receptor coactivator 6) [SID405528450], technical replicate 1?
viability, normalised (%): 74.9 (active)

For NCOA6 (nuclear receptor coactivator 6) [SID405528450], technical replicate 2, how do the results read?
viability, normalised (%): 61.9 (active)

What did the screen give for NCOA6 (nuclear receptor coactivator 6) [SID405528450], technical replicate 3?
viability, normalised (%): 70.3 (active)

For TNKS (tankyrase) [SID405528466], technical replicate 1, how do the results read?
viability, normalised (%): 76.8 (active)

For TNKS (tankyrase) [SID405528466], technical replicate 2, what was measured?
viability, normalised (%): 94.3

What is on record for TNKS (tankyrase) [SID405528466], technical replicate 3?
viability, normalised (%): 97.7

What did the screen give for SMG1 [SID405527801], technical replicate 1?
viability, normalised (%): 80.7

What did the screen give for SMG1 [SID405527801], technical replicate 2?
viability, normalised (%): 83.1

What did the screen give for SMG1 [SID405527801], technical replicate 3?
viability, normalised (%): 72.9 (active)

For PIM1 (Pim-1 proto-oncogene, serine/threonine kinase) [SID405527587], technical replicate 1, what was measured?
viability, normalised (%): 92.3

For PIM1 (Pim-1 proto-oncogene, serine/threonine kinase) [SID405527587], technical replicate 2, how do the results read?
viability, normalised (%): 79.8 (active)

With PIM1 (Pim-1 proto-oncogene, serine/threonine kinase) [SID405527587], technical replicate 3, how do the results read?
viability, normalised (%): 92.8

With MACROH2A2 (macroH2A.2 histone) [SID405526834], technical replicate 1, how do the results read?
viability, normalised (%): 52.2 (active)

Which result is listed for MACROH2A2 (macroH2A.2 histone) [SID405526834], technical replicate 2?
viability, normalised (%): 66 (active)

For MACROH2A2 (macroH2A.2 histone) [SID405526834], technical replicate 3, how do the results read?
viability, normalised (%): 105

Which result is listed for H4C1 (H4 clustered histone 1) [SID405526862], technical replicate 1?
viability, normalised (%): 77.2 (active)

How did the screen score H4C1 (H4 clustered histone 1) [SID405526862], technical replicate 1?
viability, normalised (%): 89.8

How did the screen score H4C1 (H4 clustered histone 1) [SID405526862], technical replicate 2?
viability, normalised (%): 55.5 (active)

Which result is listed for H4C1 (H4 clustered histone 1) [SID405526862], technical replicate 2?
viability, normalised (%): 66.1 (active)

What is on record for H4C1 (H4 clustered histone 1) [SID405526862], technical replicate 3?
viability, normalised (%): 94.4

How did the screen score H4C1 (H4 clustered histone 1) [SID405526862], technical replicate 3?
viability, normalised (%): 76.7 (active)

What is on record for SATB2 (SATB homeobox 2) [SID405527273], technical replicate 1?
viability, normalised (%): 58.5 (active)

For SATB2 (SATB homeobox 2) [SID405527273], technical replicate 2, what was measured?
viability, normalised (%): 70.4 (active)

With SATB2 (SATB homeobox 2) [SID405527273], technical replicate 3, what was measured?
viability, normalised (%): 67.1 (active)

A stretch from the list above, as a working copy:
NCOA6 (nuclear receptor coactivator 6) [SID405528450], technical replicate 1 → viability, normalised (%): 74.9 (active)
NCOA6 (nuclear receptor coactivator 6) [SID405528450], technical replicate 2 → viability, normalised (%): 61.9 (active)
NCOA6 (nuclear receptor coactivator 6) [SID405528450], technical replicate 3 → viability, normalised (%): 70.3 (active)
TNKS (tankyrase) [SID405528466], technical replicate 1 → viability, normalised (%): 76.8 (active)
